Data source: PubChem BioAssay AID1259308 (NCATS, 2017)
Shown is one part, drawn at random, of about 59,000 reagents tested. About 1,510 of all reagents (2.6%) count as active. 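Calls use total luciferase alone and ignore viability, so some active siRNAs may act by altering cell number.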 Unmarked entries are inactive. The numbers tell different reagents against one gene apart. Not all columns of the deposit are shown.

Test: 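Candidate targets for better recombinant protein yield in mammalian cells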 (primary screen)
System: human HEK293 embryonic kidney cells stably expressing firefly luciferase (HEK-CMV-Luc2-Hygro)
Knock-down reagent: single siRNA against human genes, 0.8 pmol siRNA per well
Duration: 72 h
Read-out: 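Reporter luminescence and viable-cell signal on separate replicate plates, given as percent of non-targeting control and median/MAD z-scores, plus per-cell luciferase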
Reading the numbers: total luciferase, z-score and total luciferase, % of control: higher = more reporter protein produced
Active means: 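An siRNA counts as active if its total luciferase robust z-score exceeds 3; genes with two or more such siRNAs out of three were retested with fresh siRNAs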
Meaning of the calls: active = raised luciferase; inactive = no rise

Silencing of TNR #1 resulted in: total luciferase, z-score 1.82; total luciferase, % of control 118. For TNR #2, the entry reads total luciferase, z-score 0.265; total luciferase, % of control 87.2. Knock-down of TNR #3 resulted in: total luciferase, z-score -1.45; total luciferase, % of control 53. For FXYD3 #1, the entry reads total luciferase, z-score 1.96; total luciferase, % of control 121. For FXYD3 #2, the values are total luciferase, z-score 1.01; total luciferase, % of control 102. Depletion of FXYD3 #3 came out at: total luciferase, z-score 1.72; total luciferase, % of control 116.

Look-ups from the list:
FXYD3 #3, total luciferase, % of control → 116
Value for FXYD3 #2 in “total luciferase, z-score”: 1.01

Next reagents:
After knock-down of OCIAD1 #1 the results were total luciferase, z-score 0.411; total luciferase, % of control 90.1. Against OCIAD1 #2, the entry reads total luciferase, z-score -0.855; total luciferase, % of control 64.9. Depletion of OCIAD1 #3 resulted in: total luciferase, z-score 0.114; total luciferase, % of control 84.1. Knock-down of INO80 #1 gave: total luciferase, z-score 1.68; total luciferase, % of control 115. Depletion of INO80 #2 came out at: total luciferase, z-score 0.927; total luciferase, % of control 100. With knock-down of INO80 #3, the record shows total luciferase, z-score 1.44; total luciferase, % of control 111.
